Results on twelve molecules are retold here after article PMC5571105.

No constants are given. Whether binding was seen depends on the method and setting. For part of these data: A result given as binding can be weak or reduced; the word gives no strength. For part of these data: Binding seen in cells or lysates may run through a third protein.

One experiment addresses T1, OsRR10 (rice) (UniProt Q2QXY3).
T1 sequence: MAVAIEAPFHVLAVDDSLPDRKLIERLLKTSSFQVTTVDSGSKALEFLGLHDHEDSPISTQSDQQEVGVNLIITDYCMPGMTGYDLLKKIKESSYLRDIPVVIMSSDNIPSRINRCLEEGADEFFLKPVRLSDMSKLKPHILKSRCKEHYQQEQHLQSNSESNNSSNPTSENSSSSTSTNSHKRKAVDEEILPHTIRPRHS
In words: two-hybrid; S. cerevisiae AH109; bait in pGBD-C1 (GAL4 binding domain; written as target), prey in pGAD-C1 (GAL4 activation domain; written as binder); serial dilutions spotted on triple drop-out medium with 5 mM 3-AT (HIS3) and quadruple drop-out medium (ADE2), 30 °C; growth on quadruple drop-out shows strong interaction.

A further experiment concerns the target T2, OsRR2 (rice) (UniProt Q6YVX7).
T2 sequence: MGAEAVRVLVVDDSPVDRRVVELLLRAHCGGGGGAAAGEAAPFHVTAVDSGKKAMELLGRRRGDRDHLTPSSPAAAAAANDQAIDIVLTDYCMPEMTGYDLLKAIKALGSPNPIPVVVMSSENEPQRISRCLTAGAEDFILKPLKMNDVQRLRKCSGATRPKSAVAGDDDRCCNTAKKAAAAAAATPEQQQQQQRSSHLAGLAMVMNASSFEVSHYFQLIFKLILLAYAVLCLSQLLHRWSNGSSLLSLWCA
Described as above.

The next experiment deals with T3, OsRR21 (rice) (UniProt Q8H7S7).
T3 sequence: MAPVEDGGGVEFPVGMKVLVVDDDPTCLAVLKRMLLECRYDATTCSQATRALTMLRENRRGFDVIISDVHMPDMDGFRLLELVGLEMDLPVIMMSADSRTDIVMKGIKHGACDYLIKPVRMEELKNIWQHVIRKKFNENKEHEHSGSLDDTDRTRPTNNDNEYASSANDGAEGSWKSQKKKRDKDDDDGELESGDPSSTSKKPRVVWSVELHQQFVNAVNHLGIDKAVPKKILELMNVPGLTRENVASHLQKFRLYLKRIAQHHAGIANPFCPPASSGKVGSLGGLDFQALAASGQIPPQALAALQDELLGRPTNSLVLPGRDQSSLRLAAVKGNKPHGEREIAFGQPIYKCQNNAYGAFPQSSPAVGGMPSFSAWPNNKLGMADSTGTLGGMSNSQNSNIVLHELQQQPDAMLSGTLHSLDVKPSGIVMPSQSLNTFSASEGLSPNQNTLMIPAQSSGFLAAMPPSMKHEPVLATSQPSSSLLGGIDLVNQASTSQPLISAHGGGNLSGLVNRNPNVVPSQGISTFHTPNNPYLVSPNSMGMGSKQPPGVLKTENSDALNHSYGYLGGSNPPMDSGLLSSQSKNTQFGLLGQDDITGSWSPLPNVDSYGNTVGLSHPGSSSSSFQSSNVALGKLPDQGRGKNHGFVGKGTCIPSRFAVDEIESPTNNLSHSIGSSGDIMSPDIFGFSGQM
The experiment is described as above.

The target in a further experiment is T4, OsRR3 (rice) (UniProt Q6K9T0).
T4 sequence: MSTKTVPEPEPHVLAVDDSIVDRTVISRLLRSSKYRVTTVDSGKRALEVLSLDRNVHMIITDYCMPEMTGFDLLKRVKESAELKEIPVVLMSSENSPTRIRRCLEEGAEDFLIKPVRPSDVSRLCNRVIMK
The experiment is described as above.

The target in another experiment is T5, OsRR9 (rice) (UniProt Q2RAP3).
T5 sequence: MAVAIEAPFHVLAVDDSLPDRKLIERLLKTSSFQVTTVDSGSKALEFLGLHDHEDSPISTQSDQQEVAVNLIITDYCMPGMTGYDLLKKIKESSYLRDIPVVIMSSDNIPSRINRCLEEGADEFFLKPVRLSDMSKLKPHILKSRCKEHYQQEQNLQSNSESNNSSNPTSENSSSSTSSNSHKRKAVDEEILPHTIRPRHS
The experiment is described as above.

Experiment [1] has as its target OsPHP1 (rice). In words: two-hybrid; β-galactosidase filter lift assay (LacZ reporter) of the co-transformed yeast colonies, X-gal as substrate, 30 °C in the dark.
Experiment [2] addresses OsPHP1 (rice). Briefly: two-hybrid; S. cerevisiae AH109; bait in pGBD-C1 (GAL4 binding domain; written as target), prey in pGAD-C1 (GAL4 activation domain; written as binder); serial dilutions spotted on triple drop-out medium with 5 mM 3-AT (HIS3) and quadruple drop-out medium (ADE2), 30 °C; growth on quadruple drop-out shows strong interaction.
In experiment [3] the target is OsPHP2 (rice). The description is as above.
Experiment [4] deals with OsPHP3 (rice). Described as above.
In experiment [5] the target is OsPHP1 (BiFC fusion) (rice). In words: split reporter; BiFC in onion epidermal peel cells, nEYFP and cEYFP fusions under the 2XCaMV35S promoter co-transformed by particle bombardment; YFP seen by confocal microscopy 12 hours post transfection; repeated three times.
Experiment [6] deals with OsPHP2 (rice). Briefly: two-hybrid; β-galactosidase filter lift assay (LacZ reporter) of the co-transformed yeast colonies, X-gal as substrate, 30 °C in the dark.
In experiment [7] the target is OsPHP3 (rice). The experiment is described as above.

In the case of OsAHP2 (rice), the binding entry in the experiment with OsRR10 (rice), with OsRR2 (rice), in the experiment with OsRR21 (rice), with OsRR3 (rice) and with OsRR9 (rice) was “no binding” in each case.

Regarding OsAHP1 (rice), the binding result with OsRR10 (rice), with OsRR2 (rice), with OsRR21 (rice), in the experiment with OsRR3 (rice) and in the experiment with OsRR9 (rice) was “no binding” each time.

On to OsPHP1 (rice), for which the binding result with OsRR10 (rice), in the experiment with OsRR2 (rice), with OsRR21 (rice) and with OsRR9 (rice) was “no binding” each time.

Take OsPHP2 (rice): the binding entry with OsRR10 (rice), with OsRR2 (rice), in the experiment with OsRR21 (rice), with OsRR3 (rice) and with OsRR9 (rice) was “no binding” in each case.

In the case of OsPHP3 (rice), the binding result with OsRR10 (rice), with OsRR2 (rice), with OsRR21 (rice), in the experiment with OsRR3 (rice) and with OsRR9 (rice) was “no binding” throughout.

For the molecule OsRR27 (rice), the binding entry with OsRR10 (rice), in the experiment with OsRR2 (rice), in the experiment with OsRR3 (rice) and in the experiment with OsRR9 (rice) was “no binding” throughout.

B1: OsRR3 (protein, UniProt Q6K9T0 1-131)
chain: MSTKTVPEPEPHVLAVDDSIVDRTVISRLLRSSKYRVTTVDSGKRALEVLSLDRNVHMIITDYCMPEMTGFDLLKRVKESAELKEIPVVLMSSENSPTRIRRCLEEGAEDFLIKPVRPSDVSRLCNRVIMK
As for B1, the binding result is listed as “binds” with OsPHP1 (rice) [1], “binds weakly” with OsPHP1 (rice) [2], “no binding” in the experiment with OsPHP2 (rice) [3] and “no binding” with OsPHP3 (rice) [4].

B2: nEYFP-OsRR3 (protein, UniProt Q6K9T0 1-131)
chain: MSTKTVPEPEPHVLAVDDSIVDRTVISRLLRSSKYRVTTVDSGKRALEVLSLDRNVHMIITDYCMPEMTGFDLLKRVKESAELKEIPVVLMSSENSPTRIRRCLEEGAEDFLIKPVRPSDVSRLCNRVIMK
For B2, the binding result in [5] is on record as “binds”.

B3: OsRR22 (protein, UniProt Q5SML5 1-696)
chain: MLLGALRMEERKGLMGRERDQFPVGMRVLAVDDDPVCLKVLETLLRRCQYHVTSTNQAITALKLLRENRDMFDLVISDVHMPDMDGFKLLELVGLEMDLPVIMLSVNGETKTVMKGITHGACDYLLKPVRIEELRNIWQHVVRRKFGNRERNNLDFSKECNKPQSADTDHGPYQPTCGSSDQNGRSSRKRKELHGEDDDEGDDNDYQENDEPSAAKKPRVVWSVELHRKFVAAVNQLGIDKAVPKRILELMNVEKLTRENVASHLQKYRLYLKRLGAVASQQASIVAAFGGRDPSFLHIGAFEGLQSYQPFAPSAALPSFNPHGLLTRTSAAAAFGLQELAAPSSTIQTSTGNVTVGHCLEENQQANLAQGLTAAIGQPQLQQNWIHQEGNGLSDVFSGSSLTNTLSSTLQRVPSSSLPPQELLECKQAKVSMPPSIRIPPSSSALLERTLGVSTNLGDSSISQQGALPIDGGFSADRLPLHSSFDGAVATKLDTSLAASQREIGQQGKFSVSMLVSPSDNLALAKNAKTGASSSGSTIILPLDTARHSDYLQFGGASNSLQKMDGQKQDHIQSSNIIWSSMPSTQLPSDTQIHNTQNQRLDSGSFNHNIGAHLADQTNASASILPQMKFDTRISEEKMKQKNTYDLGSSKLQGGFNSSGCNFDGLLNSIIKVEKDDLPFMDNELGCDLFPLGACI
For B3, the binding result with OsPHP1 (rice) [1], with OsPHP2 (rice) [6], in the experiment with OsPHP3 (rice) [7], with OsPHP1 (rice) [2], in the experiment with OsPHP2 (rice) [3] and with OsPHP3 (rice) [4] was “binds” throughout.

B4: OsRR9 (protein, UniProt Q2RAP3 1-201)
chain: MAVAIEAPFHVLAVDDSLPDRKLIERLLKTSSFQVTTVDSGSKALEFLGLHDHEDSPISTQSDQQEVAVNLIITDYCMPGMTGYDLLKKIKESSYLRDIPVVIMSSDNIPSRINRCLEEGADEFFLKPVRLSDMSKLKPHILKSRCKEHYQQEQNLQSNSESNNSSNPTSENSSSSTSSNSHKRKAVDEEILPHTIRPRHS
Take B4: the binding entry with OsPHP2 (rice) [3] and in the experiment with OsPHP3 (rice) [4] was “no binding” each time.

B5: OsRR10 (protein, UniProt Q2QXY3 1-201)
chain: MAVAIEAPFHVLAVDDSLPDRKLIERLLKTSSFQVTTVDSGSKALEFLGLHDHEDSPISTQSDQQEVGVNLIITDYCMPGMTGYDLLKKIKESSYLRDIPVVIMSSDNIPSRINRCLEEGADEFFLKPVRLSDMSKLKPHILKSRCKEHYQQEQHLQSNSESNNSSNPTSENSSSSTSTNSHKRKAVDEEILPHTIRPRHS
In the case of B5, the binding entry in the experiment with OsPHP2 (rice) [3] and with OsPHP3 (rice) [4] was “no binding” each time.

B6: OsRR2 (protein, UniProt Q6YVX7 1-252)
chain: MGAEAVRVLVVDDSPVDRRVVELLLRAHCGGGGGAAAGEAAPFHVTAVDSGKKAMELLGRRRGDRDHLTPSSPAAAAAANDQAIDIVLTDYCMPEMTGYDLLKAIKALGSPNPIPVVVMSSENEPQRISRCLTAGAEDFILKPLKMNDVQRLRKCSGATRPKSAVAGDDDRCCNTAKKAAAAAAATPEQQQQQQRSSHLAGLAMVMNASSFEVSHYFQLIFKLILLAYAVLCLSQLLHRWSNGSSLLSLWCA
On to B6, for which the binding result with OsPHP2 (rice) [3] and with OsPHP3 (rice) [4] was “no binding” each time.
